According to the supplement of paper PMC12823440, “Inhibitors supercharge kinase turnover through native proteolytic circuits” (Nature, 2025):
Counter-ions that a name gives are not always drawn. Some of the results follow. Hit calls seldom repeat between salt and free forms of one compound.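 In K562 cells expressing nanoluciferase-fused kinases, luminescence was recorded at 4 h intervals between 2 and 18 h, normalized as percent of control with DMSO at 100% and a positive control at 0%. A significant (2 sigma) signal drop marks a time point as decreased. The authors' rule for a hit is not shown and takes in more than the number of time points.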

By UniProt entry, the sequences of proteins in these tests, tags left out.
UniProt P29317, whole entry: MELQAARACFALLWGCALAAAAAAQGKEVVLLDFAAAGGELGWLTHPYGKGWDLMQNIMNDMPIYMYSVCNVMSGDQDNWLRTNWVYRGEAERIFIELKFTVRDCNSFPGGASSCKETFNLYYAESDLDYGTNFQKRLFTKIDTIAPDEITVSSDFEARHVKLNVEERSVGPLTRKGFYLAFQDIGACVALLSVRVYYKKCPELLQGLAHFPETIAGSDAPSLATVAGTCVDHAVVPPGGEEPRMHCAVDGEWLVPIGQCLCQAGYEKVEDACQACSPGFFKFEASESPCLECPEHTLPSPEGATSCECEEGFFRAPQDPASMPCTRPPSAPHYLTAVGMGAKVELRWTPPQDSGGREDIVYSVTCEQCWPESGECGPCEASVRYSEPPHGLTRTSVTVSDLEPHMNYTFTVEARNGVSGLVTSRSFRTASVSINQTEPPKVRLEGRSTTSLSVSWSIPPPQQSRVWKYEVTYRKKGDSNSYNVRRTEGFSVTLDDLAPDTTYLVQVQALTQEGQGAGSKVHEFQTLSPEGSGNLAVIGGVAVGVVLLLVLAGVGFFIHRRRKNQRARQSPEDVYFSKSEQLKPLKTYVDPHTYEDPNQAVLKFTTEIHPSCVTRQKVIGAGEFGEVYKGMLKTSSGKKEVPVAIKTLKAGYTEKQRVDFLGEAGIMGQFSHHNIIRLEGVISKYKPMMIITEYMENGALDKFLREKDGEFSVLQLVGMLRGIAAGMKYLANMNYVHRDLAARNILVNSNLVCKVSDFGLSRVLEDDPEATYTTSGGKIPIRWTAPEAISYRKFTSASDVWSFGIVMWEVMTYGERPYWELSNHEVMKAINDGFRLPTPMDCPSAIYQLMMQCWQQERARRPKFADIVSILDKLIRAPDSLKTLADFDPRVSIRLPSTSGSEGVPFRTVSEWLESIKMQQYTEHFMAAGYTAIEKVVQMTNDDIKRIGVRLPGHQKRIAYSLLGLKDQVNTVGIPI

Each molecule was assayed against EPHA2 (UniProt P29317) (assay: kinase-Nluc reporter destabilization hit call (1 = scored as downregulated) (binary); higher = compound decreases kinase abundance). Settings: 2.5 µM; K562; 2-18 h.

kinase-Nluc reporter destabilization hit call, inactive:
C=CC(=O)N1CCC[C@@H](n2nc(-c3ccc(Oc4ccccc4)cc3)c3c(N)ncnc32)C1 [Ibrutinib] 0
Cc1cn(-c2cc(NC(=O)c3ccc(C)c(Nc4nccc(-c5cccnc5)n4)c3)cc(C(F)(F)F)c2)cn1 [Nilotinib] 0
Cc1cc(C)n2c1C=C1C=CC(CCC(=O)NCCN3CCN(C/C=C/C(=O)N4CCCC(n5nc(-c6ccc(Oc7ccccc7)cc6)c6c(N)ncnc65)C4)CC3)=[N+]1[B-]2(F)F (centres undefined) 0
Cc1cnc(Nc2ccc(OCCN3CCCC3)cc2)nc1Nc1cccc(S(=O)(=O)NC(C)(C)C)c1 [Fedratinib (hydrochloride hydrate)] 0
C=CC(=O)Nc1cc2c(Nc3ccc(F)c(Cl)c3)ncnc2cc1OCCCN1CCOCC1 [Canertinib (dihydrochloride)] 0
O=C(Nc1cccc(Nc2nccc(Nc3cccc(C(F)(F)F)c3)n2)c1)C1CC1 [Aurora kinase inhibitor-3] 0
COc1ccc(-c2cc3nccn3c(Nc3ncccc3C(N)=O)n2)cc1OC [BAY 61-3606 (dihydrochloride)] 0
Nc1nc(Nc2ccc(S(N)(=O)=O)cc2)nn1C(=O)c1c(F)cccc1F 0
COc1cc(N2CCC(N3CCN(C)CC3)CC2)ccc1Nc1ncc(Cl)c(Nc2ccccc2S(=O)(=O)C(C)C)n1 0
CCc1cc2c(cc1-c1cnn(CC(=O)N(C)C)c1)C(C)(C)c1[nH]c3cc(C#N)ccc3c1C2=O 0
Cc1cnc(Nc2ccc(OCCN3CCCC3)cc2)nc1Nc1cccc(S(=O)(=O)NC(C)(C)C)c1 [Fedratinib] 0
Cc1cc(Nc2cc(N3CCN(C)CC3)nc(/C=C/c3ccccc3)n2)n[nH]1 [ENMD-2076 (Tartrate)] 0
Cc1cc(Nc2cc(N3CCN(C)CC3)nc(/C=C/c3ccccc3)n2)n[nH]1 0

Taken from above for reference:
kinase-Nluc reporter destabilization hit call, inactive:
Cc1cc(C)n2c1C=C1C=CC(CCC(=O)NCCN3CCN(C/C=C/C(=O)N4CCCC(n5nc(-c6ccc(Oc7ccccc7)cc6)c6c(N)ncnc65)C4)CC3)=[N+]1[B-]2(F)F (centres undefined) 0
Cc1cnc(Nc2ccc(OCCN3CCCC3)cc2)nc1Nc1cccc(S(=O)(=O)NC(C)(C)C)c1 [Fedratinib (hydrochloride hydrate)] 0

Same assay, conditions: 10 µM; K562; 2-18 h

kinase-Nluc reporter destabilization hit call, inactive:
C=CC(=O)N1CCC([C@@H]2CCNc3c(C(N)=O)c(-c4ccc(Oc5ccccc5)cc4)nn32)CC1 [Zanubrutinib] 0
CCn1c(=O)c(-c2cc(NC(=O)Nc3ccccc3)c(F)cc2Br)cc2cnc(NC)cc21 [Ripretinib] 0
COc1cc(N2CCN(C)CC2)ccc1Nc1nccc(-c2cn(C)c3cnccc23)n1 0
Fc1ccc(-c2nc(-c3ccc4ccccc4c3F)[nH]c2-c2ccncc2)cc1 0
C=CC(=O)N(C)CCOc1c(N)ncnc1-c1cc(F)cc(NC(=O)c2ccc(C3CC3)cc2F)c1C [Remibrutinib] 0
NCCNc1ncc(C(N)=O)c(Nc2cccc(C(F)(F)F)c2)n1 [Syk Inhibitor II] 0
C[C@@H]1O[C@@H](Oc2c(-c3ccc(O)c(O)c3)oc3cc(O)cc(O)c3c2=O)[C@H](O)[C@H](O)[C@H]1O [Quercitrin] 0
CCCOc1ccc(C=C2SC(=O)NC2=O)cc1 0
Cc1cc2c(F)c(Oc3ncnn4cc(OC[C@@H](C)O)c(C)c34)ccc2[nH]1 [Brivanib] 0
CC(C)[C@@](C)(O)[C@@H]1CN(c2nc(-c3[nH]nc4ncccc34)c(F)cc2Cl)CCN1 0
CCCCCCCCCCCCc1ccc(S(=O)(=O)Nc2nncs2)cc1 0
CC#CC(=O)N1CCC[C@H]1c1nc(-c2ccc(C(=O)Nc3ccccn3)cc2)c2c(N)nccn12 [Acalabrutinib] 0
CC(C)N(CCC(=O)c1ccc2ccccc2c1)Cc1ccccc1 0
C=CC(=O)N1C[C@@H](Nc2ncnc3[nH]ccc23)CC[C@H]1C [(2R,5S)-Ritlecitinib] 0
COc1ccc(-c2cc(C(=O)NN=C(C)c3ccc(OC)c(OC)c3)[nH]n2)cc1 0
Cn1cc(/C=C2\C(=O)Nc3cccnc32)c2ccccc21 0
Cc1ccc2c(=O)c3cccc(CC(=O)O)c3oc2c1C [Vadimezan] 0
C[C@@H]1CN(C(=O)Nc2ccc(-c3nc(N4CCOCC4)c4cnn(CCCCCCC(=O)NO)c4n3)cc2)CCO1 [HDACs/mTOR Inhibitor 1] 0
C[C@H]1CN(C2COC2)CCN1c1ccc(Nc2cc(-c3ccnc(N4CCn5c(cc6c5CC(C)(C)C6)C4=O)c3CO)cn(C)c2=O)nc1 [Fenebrutinib] 0
Nc1ncccc1-c1nc2ccc(-c3ccccc3)nc2n1-c1ccc(C2(N)CCC2)cc1 [Miransertib] 0
C=CC(=O)Nc1cc2c(Nc3ccc(F)c(Cl)c3)ncnc2cc1OCCCN1CCOCC1 [Canertinib] 0
O=c1ncn2nc(Sc3ccc(F)cc3F)ccc2c1-c1c(Cl)cccc1Cl [Neflamapimod] 0
CCCCCC1CC1CC1CC1CCCCCCCC(=O)OC (centres undefined) 0
CC(C)(C)n1nc(-c2ccc(Cl)cc2)c2c(N)ncnc21 0
NC1(C(=O)N[C@@H](CCO)c2ccc(Cl)cc2)CCN(c2nc[nH]c3nccc2-3)CC1 [Capivasertib] 0
Cc1ccc(O)cc1Nc1ccnc(Nc2cccc(C(N)=O)c2)n1 [Lck inhibitor 2] 0
